Among the data in patent US20250333523A1 (Alector, published 2025) are binding values, retold here.

Changes are numbered by the printed parent chain. These are yes or no findings as the source states them, for the method shown. Some binding calls cover weakened binding; strength is not graded here.

The chains are these.
B1: anti-IL18BP antibody BP-06 (antibody, human IgG1, V domains shown)
VH: QIQLQQSGPELVKPGASVKISCKASGYTFTDYYLNWVKQTPGQGLEWIGWIYPGSGNTKYTEKFKDKASLTVDTSSNTAYMQLSSLTSDDTAVYFCARRGVAWFAYWGQGTLVTVSA
VL: DIKMTQSPSSIYASLGERVTITCKASQDINSYLSWFQQKPGKSPKTLIHRANRLVDGVPSRFSGSGSGQDYSLTISSLEYEDMGIYYCLQHDDFPPTFGAGTNLELK
B2: anti-IL18BP antibody BP-04 (antibody, V domains shown)
VH: HVHLHQSGAELVRPGVSVKISCRGSGYTFTDYDVHWVKQSHAKSLEWIGVISTYYGDVGYNQEFKGKATMTLDKSSSTSYLELARLTSEDSAIYYCARSGTYYYGTRESHALDYWGQGTSVTVSS
VL: DIQMTQSPASLSVSVGETVTITCRTSDNVYSNLAWYQQKQGKSPQLLVYGAINLADGVPSRFSGSGSDTQYSLKINNLQSEDFGSYYCQHFWGNPYTFGGGTKLEIK
notes: also called BP-04 (hybridoma); BP-04 (parental)
B3: anti-IL18BP antibody BP-10 (antibody, human IgG1, V domains shown)
VH: QVQLQQPGAERVEPGASVRLSCKTSGYTFTNYWMHWVKQRPGQGLEWIGMIHPESGSTNNNEKFKSKATLTVDKSSSTAYMQLSSLTSEDSAVYYCARWDRGYFDYWGQGTTLTVSS
VL: DIVMTQSHKFMSTSVGDRVSITCKASQDVRSTVGWYQQRPGQSPKLLIYWTSTRHTGVPDRFTGSGSGTDYTLTISSVQAEDLALYYCQQHYSTPYTFGGGTTLEIK
B4: anti-IL18BP antibody BP-08 (antibody, human IgG1, V domains shown)
VH: QVQLQQPGAELVKPGASVKLSCKVSGYTFTSYWMHWVKQRPGQGLEWIGMIDPNSDSSRYNEKFKNRATLTADKSSSTAFMQFSSLTSEDSAVYYCARSRLGQDYWGQGTTLTVSS
VL: B3 VL with R30S, S31T, T32A, G34A, R39K, T51A, G66E, T74I, Y92F, T103K
B5: anti-IL18BP antibody BP-09 (antibody, human IgG1, V domains shown)
VH: QVQLQQSGAELVRPGASVTLSCKASGYRFTDYAMHWVKQTPVHGLQWIGIIDPETGDTAFNQKFKGKATLTADKSSSTAYMELSSLTSEDSAVYYCTRPRGAMDYWGQGTSVTVSS
VL: DIVMTQSHKFMSTSGGDRVSITCKASQDVGTAVAWYQQKPGISPKLLIYWASTRHTGVPDRFTGSGSGTDFTLAISNVQSEDLADYFCQQYSSHPYTFGGGTKLEIK
B6: anti-IL18BP antibody BP-13 (antibody, human IgG1, V domains shown)
VH: QVQLQQSGAELVRPGASVTLSCKASGYTFTDYEMHWVKQTPVHGLEWIGPIDPETGDTAYNQKFKGQATLTADKSSSTAYMELSSLTSEDSAVYYCTRGSRGVFDYWGQGTALTVSS
VL: B5 VL with G15V, I42Q, T53A, A74T, Q90H, S92F, S93N, H94F, Y96R, K107T
B7: anti-IL18BP antibody BP-01 (antibody, human IgG1, V domains shown)
VH: QVQLQQSGPEVVRPGVSVKISCKGSGYTFTDFAMYWVKQSHAKSLEWIGVISTDNGDTSYNQKFKGKATMTVDKSSSTAYMELDRLTSEDSAIYYCARSRGPFDYWGQGTALTVSS
VL: B5 VL with M11K, G15V, S20N, I42Q, T56I, A74T, S76R, Q90R, H94Y, Y96W
B8: anti-IL18BP antibody BP-11 (antibody, human IgG1, V domains shown)
VH: QVQLQQSGAELAKPGASVKMSCKASGYTFTNYWMHWVKQRPGQGLEWIGHIDPSTGYTEYNQKFKDKATLTADKSSSTAYMQLSSLTSEDSAVYYCARGLGGLFGYWGQGTLVTVSA
VL: DIQMTQSPSSLSASLGGKVTITCKASQDINKFIAWYQHKPGKGPRLLIHHTSTLMPGIPSRFSGSGSGREYSFSISNLEPEDIATYYCLQYDNLLWTFGGGTKLEIR
B9: anti-IL18BP antibody BP-03 (antibody, human IgG1, V domains shown)
VH: EVQLQQSGPELVKPGASVKIPCKASGYTFTDYNMDWVKQSHGKSLEWIGNINTDNGGTVYNQKFKGKATLTVDQSSSTAYMELRSLTSEDTAVYYCARSDTTVVASRYYAMDYWGQGTSVTVSS
VL: DIVLTQSPASLAMSLGKRATISCRASESVSIIGTNLIHWYQQKPGQPPKLLIYHASNLETGVPARFSGSGSRTDFTLTIDPVEEDDVAIYYCLQSRKIPPTFGGGTKLEIK
B10: anti-IL18BP antibody BP-07 (antibody, human IgG1, V domains shown)
VH: EVQLQQSGPELVKPGASVKISCRASGFTITDYNMDWVRQSHGKSLEWIGNINLNNGGSIYNQKFKGKATLTIDKSSSTAYMELRSLTSEDTAVYYCARSDTTVVASRYYAMDYWGQGTSVTVSS
VL: B9 VL with A64V
B11: anti-IL18BP antibody BP-12 (antibody, human IgG1, V domains shown)
VH: EVQLQQSGPELVKPGASVKMSCKTSGYTFTEYTMHWVKQSHGKSLEWIGGVNPNNGGTTYNQKFRDKATLTVDKSSSTTYMEVRTLTSDDSAVYYCAPLWRVFDYWGQGTTLTVSS
VL: DIVMTQSHKFMSSSVGDRVSITCKASQDVGTAVAWYQQKPGQSPKLLIYWASTRHTGVPDRFTGSGSGTDFTLTISNVQSEDLADYFCHQFSRYPLTFGAGTKLELK
B12: anti-IL18BP antibody BP-16 (antibody, human IgG1, V domains shown)
VH: QVQLVQSGAEVKKPGASVKVSCKASGYTFTTYDINWVRQAPGQGLEWMGIIGSYGGATSYAQKFQGRVTMTRDTSTSTVYMELSSLRSEDTAVYYCATAEEELRFDYWGQGTLVTVSS
VL: DIQMTQSPSSLSASVGDRVTITCRASQSISSYLNWYQQKPGKAPKLLIYKASTLHNGVPSRFSGSGSGTDFTLTISNLQPEDFATYYCQQAISFPLTFGGGTKVEIK
B13: anti-IL-18BP antibody variant BP-04.03 (antibody, V domains shown)
VH: QVQLVQSGAEVKKPGASVKVSCKASGYTFTDYDMHWVRQAPGQGLEWMGIISTYYGDVSYAQKFQGRVTMTRDKSTSTVYMELSSLRSENTAVYYCARSGTYYYGTREQHALDYWGQGTLVTVSS
VL: DIQMTQSPSSVSASVGDRVTITCRASDNVYSNLAWYQQKPGKAPKLLIYGAISLADGVPSRFSGSGSGTDFTLTISSLQPEDFATYYCQHFWGNPYTFGQGTKLEIK
B14: anti-IL-18BP antibody variant BP-04.07 (antibody, V domains shown)
VH: B13 VH with D57V, F64K, N90D, Y103N, Q109S
VL: B13 VL
B15: anti-IL-18BP antibody variant BP-04.05 (antibody, V domains shown)
VH: B13 VH with D57V, F64K, N90D, Q109S, L112F
VL: B13 VL

One experiment has as its target His/Avi-CynoIL18BP (recombinant cynomolgus IL-18BP with His and Avi tags) (cynomolgus monkey). Briefly: SPR, qualitative.
Consider B1, for which the binding entry was “binds”.
Take B2: the binding entry is given as “binds”.
Regarding B3, the binding result was “binds”.
B4: the binding entry is given as “binds”.
In the case of B5, the binding result is on record as “binds”.
In the case of B6, the binding entry was “binds”.
For B7, the binding entry was “binds”.
Same read-out and setting: the result for B8 reads “binds”; that for B9, “binds”.
As to B10, the binding entry is given as “binds”.
On the same count and under the same terms, the result for B11 reads “binds”.
For the molecule B12, the binding result is “binds”.

Another experiment shares this target. In words: SPR Biacore T200. On the technique in general: In SPR one partner is held on a chip, and binding of the other changes the refractive index at the surface.
For B13, the binding result was “binds”.
Same read-out and setting: the result for B14 reads “binds”.
On the same count and under the same terms, the result for B15 reads “binds”.

The target is the same in the next experiment. Briefly: ELISA, coated IL-18BP. For orientation: ELISA stands for enzyme-linked immunosorbent assay.
Consider B1, for which the binding entry is recorded as “binds”.

Another experiment shares this target. Briefly: SPR, qualitative; column: Human and cynomolgus only cross-reactive.
Consider B1, for which the binding result is “binds”.
On to B4, for which the binding entry is listed as “binds”.

Another experiment shares this target. In words: SPR, qualitative; column: Human, cynomolgus, and mouse cross-reactive.
On to B2, for which the binding result is on record as “binds”.
As for B8, the binding entry is reported as “binds”.
For the molecule B9, the binding result is listed as “binds”.

A further experiment shares this target. In words: SPR, qualitative; cross-reactive; * = Mouse IL-18BP binding < human and cynomolgus.
On to B3, for which the binding entry is given as “binds”.
As for B5, the binding entry is reported as “binds”.
Same read-out and setting: the result for B6 reads “binds”; that for B7, “binds”; that for B11, “binds”.

For another experiment the target is unchanged. Briefly: SPR, qualitative; cross-reactive; † = Human IL-18BP binding > mouse and cynomolgus.
B12: the binding entry is “binds”.

The next experiment shares this target. Briefly: SPR, qualitative; cross-reactive; ** = Cynomolgus IL-18BP binding < human and mouse.
With B10, the binding result was “binds”.

Another experiment has the same target. In words: SPR Carterra LSA, IgG immobilized; HB = heterogeneous binding, doesn't fit to 1:1 binding model.
Turning to B1, the binding result was “binds”.
In the case of B10, the binding entry is on record as “binds”.
